# In PubChem BioAssay AID1508600 (Functional Genomics Laboratory (NCATS/FGL), 2020):
# The whole screen tested about 53,000 sequences, of which about 3,700 (7%) were called active.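 How the source made its calls: active means gene knockdowns whose robust z-score for IL-1 alpha signal is at least 2 or at most -2, so actives lie on both sides; inactive means the rest.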 The list shows a part of the results.
# Test: Components of the Cytosolic LPS Sensing Pathway: Gene Identification via Genome-wide siRNA Screen;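 further: robust z of the log signal after scaling to non-targeting control siRNA wells of the plate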
# Conditions: RAW264.7 macrophages, IL-1a HTRF, actives lie on both sides, screened at 100 nM (by protocol), cells primed 5 h with Pam3CSK4 first
# Procedure, shortened: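 Read-out: IL-1a HTRF on supernatant, divided by plate negative-control median ×100, log-transformed and converted to robust z-score. Cells were RAW264.7 given 100 nM siRNA, Pam3CSK4-primed 5 hours, then LipidA-transfected 24 hour.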
row,Sequence,z-score
1,GGGAUUCUUACUCAGACGCTT against Bmf,inactive: 0.297
2,CGCUUGUCUAGGGUACAAATT against Daam1,inactive: 1.07
3,CCGCUGCAUAGCAUGUACATT against Dusp23,inactive: 0.901
4,GGAACCUUCACGAUAACAGTT against 2810407A14Rik,inactive: 0.682
5,CCUGGAGAAUUCGAAAAAATT against Grm8,inactive: 0.606
6,GGAAAUUAUCAAAGUGACATT against Camk2a,inactive: -1.65
7,CCAGCCAUCUGCCAGUAUATT against Gm5148,inactive: 0.253
8,GGACAAUUACAUCCAGCCUTT against 2610528J11Rik,active: -2.11
9,GAUCAACCUGAGCUCCAGUTT against Olfr25,active: 2
10,GCACUUAUGAUGUCCUAUUTT against Sema4b,inactive: 0.606
11,GGAAAAUGAAAUCAUCGAGTT against Fuca1,inactive: -0.987
12,GGUGCUGAUGAUGAUUAAATT against Cuta,inactive: 0.84
13,GCACAACAUGGAUUGGAAATT against Dhps,inactive: -0.0955
14,CCUUUCACACGUCAUCAGUTT against Trpc2,inactive: -0.972
15,GGCUCACCUGAUACACUUUTT against Ramp2,inactive: 0.707
16,GGCAUCCUUGGUGUUUGUATT against Ncapg2,inactive: 0.221
17,GGUGGGUACUGAAAGCCCATT against Ubqlnl,inactive: 0.666
18,GGACUUCAGCGAAUUUGACTT against Ube4a,inactive: -1.09
19,GCAACUGAAUUCCAGUUUUTT against Ugt1a2,inactive: -0.0905
20,CCGUAUUAUUGGAAGCGGCTT against Ldhal6b,inactive: 1.15
21,GCUAAAUCAAGGAGACUAUTT against Art4,inactive: 0.817
22,GGCUAACCGAAGCCAUCCUTT against Tceal9,inactive: 0.969

# Quoted at random: 2 records from the list
row,Sequence,z-score
13,GCACAACAUGGAUUGGAAATT against Dhps,inactive: -0.0955
11,GGAAAAUGAAAUCAUCGAGTT against Fuca1,inactive: -0.987

# More entries

row,Sequence,z-score
1,GGAUAGUGUUUCACUGUUATT against Igfals,inactive: -0.889
2,GGAGAUGGCCGACUUCUAUTT against Coa8,inactive: 0.934
3,GGGAAGUUCAGUUCAAUACTT against Hps4,inactive: 1.11
4,GGAGAACACAAGAUUUAAATT against Ablim3,inactive: 0.532
5,GGCGAAUGUUUACGAGAACTT against Sh2d1b2,inactive: 0.327
6,UGUAUAGCUAUGACCCUGCTT against AI413582,inactive: -1.8
7,GGCAUUACCAAUUUUUGUATT against Tada2a,inactive: 0.56
8,GAGCAUAGAAACCAUGCACTT against Acot2,inactive: -0.621
9,GGAUGUACAAGAAAAGUAUTT against Ccr3,inactive: 1.01
10,CCGCAUGACACGACAUGUATT against Cd300e,inactive: 0.847
11,CCCAAGAUGGUUUUAAGUUTT against Met,inactive: 0.483
12,GCCUGUCCACAUCACUGUATT against Tmem171,inactive: -0.16
13,GGAAAAUUUACACUGACCUTT against Gimap7,inactive: -0.377
14,CCGUUCUGGCACAGAACAGTT against A830005F24Rik,inactive: 1.41
15,GGAGGCAAUUCAGAAGUGGTT against Ttc33,inactive: -0.452
16,GGUGAAAAGUCCUGCCAAGTT against Nefh,inactive: 0.408
17,GCCAACGAGAUUUGUAACATT against Dr1,inactive: -0.631
18,GGAGAUAUCCAUCAAUAGUTT against Nbr1,inactive: 0.874
19,GAGGGAAACUAUUCUAGACTT against H2al2a,inactive: 1.64
20,GCUUAUAAGAGUCUAUCUUTT against Stam,inactive: -0.217
21,GGAGAGGUCAGAUAGAAAUTT against Zbtb41,active: -2.29
22,GGAAAGUGAUUGUUGGAGCTT against Fpr-rs3,inactive: -1.19

row,Sequence,z-score
1,GGAGAAAUCUCAAAGAUCUTT against Daw1,inactive: 0.867
2,GGCCUUCAGAAAGUCCUUGTT against Car2,inactive: -0.242
3,GCUAUAAGAGAGCUAGACATT against Lrrc40,inactive: -0.614
4,CGCUCUCUCUACAAAGGAUTT against A230052G05Rik,inactive: 0.984
5,GGAGCACAAAAAUCAGACATT against Ino80b,inactive: -1.13
6,GCAUGUGGCUAACUUCAAATT against 4933411G06Rik,inactive: 0.839
7,GGGCAAAAAGUGCAUCCGGTT against Ccn2,inactive: 0.116
8,GGCUCUUCCAACAGUUCUUTT against Grk1,active: 2.07
9,GGUCUGUCUCCAGAUUGCUTT against Olfr56,inactive: -1.73
10,CGAACCAUUUCGUAAAGUUTT against Dclk2,inactive: 0.595
11,GCCACCUCAAAUAACCGUCTT against Lat,inactive: 1.17
12,GCUUUCAGCUAUUGGACCCTT against Kl,inactive: 0.0919
13,CCUUUUUGACAUUGUGAUUTT against Nt5dc1,inactive: -0.896
14,GGGUUAACUUUUACUAUGGTT against Olfr570,inactive: -0.537
15,CCCUAAGAGUCACCAAAAUTT against Nos2,active: -2.19
16,GGAAACAAAGUCAAUGUGGTT against Cnn1,inactive: -0.522
17,GGGUACUGUAAAUUGGUCUTT against Kpna2,inactive: -0.274
18,GCAUAACAGAGUCAAUACATT against Ints8,inactive: 1.12
19,GGUAGAUGACUUUGACAACTT against Tnfsf9,inactive: 0.633
20,GGGAAUUGCCAACUUGUUCTT against Olfr639,inactive: -0.75
21,GCAGUUCUACUCUUACACCTT against Xylt1,inactive: 0.226
22,GGCACAAAUUUUAUGCCUGTT against Xkr8,inactive: -0.134

# A second format for some results above:
row	Sequence	z-score
6	GCAUGUGGCUAACUUCAAATT against 4933411G06Rik	inactive: 0.839
7	GGGCAAAAAGUGCAUCCGGTT against Ccn2	inactive: 0.116
8	GGCUCUUCCAACAGUUCUUTT against Grk1	active: 2.07

# (further entries)

row,Sequence,z-score
1,GGGCAAUCGACUGAGAAUUTT against Lingo4,inactive: -0.0246
2,GGGAAGCUAGGCACUUCAUTT against Plk4,inactive: 0.34
3,CCAACUCUAUCGUACUAAATT against Tafa5,inactive: 0.0774
4,CGGAAUUAUGAUCAUUGAGTT against Bbx,inactive: -0.37
5,GGUGUACGGUAUUUUGUUUTT against Radx,inactive: -0.106
6,GGAGCAUGGUUUUAUAAUATT against Rims2,inactive: 0.899
7,GGUCUUCAACCCUGUUUGGTT against Gpsm3,inactive: 0.329
8,CGACAGUCUAGCAUGUAACTT against Best1,inactive: 0.425
9,GCCAAAACAAGUAUGCCCUTT against Vwa3b,inactive: 0.41
10,GGAAGACAAAGAUUCUAGUTT against Abcc1,inactive: -1.06
11,GGCUGUGGUCAAGAUCAAGTT against Atp2b2,inactive: 0.0323
12,GGAUAAUAAUCACUACAUGTT against Mov10l1,inactive: 0.873
13,GGUCCACAGUACCACAUAATT against Tespa1,active: -3.2
14,CCGUGUGGAAAAUAAAUUATT against 1700013G24Rik,inactive: -0.405
15,CCAGACAUUGUCUUUAUGGTT against Xrn1,inactive: 0.147
16,GGGAUUAUCUGAGAUGGAUTT against Btbd1,inactive: -1
17,GGCCUGGAAGAUGAAGAUGTT against Arid3b,inactive: -0.591
18,UUUAAGGACCUUGUAAGAATT against Olfr813,inactive: 1.01
19,GGAAUUGUACAAAUGACCUTT against Adam29,inactive: -0.429
20,GGAAGAGAAAAGGAAGAAATT against Ankrd23,inactive: 1.54
21,GGACUUGAUCAAUGGCUAUTT against Wscd1,inactive: -0.043
22,GCCUUCAGUACUGAUACCCTT against E2f2,inactive: 0.739

row,Sequence,z-score
1,GCUCAGCAGGAAAUAACAGTT against Ccdc90b,active: -2.06
2,GGACCUUCUUCAAGAAAGUTT against Olfr430,inactive: 0.0987
3,GUCCUCAUCGGUCUGUUUATT against Mb,inactive: 0.551
4,GCAGCAGACACUCUGUACATT against Pcbp4,inactive: -0.0747
5,GCAGUUCGAAUGGAGUGGUTT against Ube2v1,inactive: -1.07
6,GGAAUAUCAGAAUACCAUCTT against Cnpy4,inactive: 0.89
7,GCGCGGCUUCAGAAUUAUCTT against Aasdh,inactive: 1.59
8,GCCGGAUACCAACAUUCAATT against Parp11,inactive: 1.86
9,GGAAGACCUGAACAAACUGTT against Cep19,inactive: -0.425
10,GCUGUUCUCGCCUAUGCAATT against Dll4,inactive: 0.0803
11,GGAAUUUUCUAUAGUCCGGTT against Flrt2,inactive: 0.155
12,GGGAGGAGAGUGAUUGAGATT against A730013G03Rik,inactive: 0.682
13,GCUCAUAAAUAAAAAGACGTT against Mcm6,inactive: 1.19
14,GGACUUCUUGUUUCUUACATT against Olfr1140,inactive: 0.226
15,GGAAAGAAGGACAAAUAAUTT against Spg20,inactive: -0.407
16,GGUCAUGACUGGUGUGUCATT against Allc,inactive: -1.27
17,GGCCAACUUCGAAGAAAAGTT against Mrpl52,inactive: 0.192
18,GCACACCCAAUGCUCUAAGTT against Nprl3,inactive: 1.25
19,GGGUAUCGUAUCAGAUCCCTT against Mdp1,inactive: 0.996
